Experimental data as given in patent US20120149081A1, “METHOD FOR FERMENTATION CULTURE IN MEDIUM CONTAINING XYLOSE” (priority 2010, published 2012).
Some results were stated once for a whole list of compounds, not compound by compound.

System: recombinant yeast W801M strain
Test: Simultaneous (glucose/xylose) fermentation test in medium supplemented with amino acid, primary screening
Assay type: cell-based, Saccharomyces cerevisiae
Settings: hour 8
Procedure: The W801M strain prepared as described above was cultured in 5 ml of an YNG+U (6.7 g/l Yeast Nitrogen Base without amino acids, 20 g/l glucose, 20 mg/l uracil) liquid medium prepared in a test tube at 30° C. and 80 rpm for 24 hours, thereby preparing a pre-pre-culture solution. Next, the pre-pre-culture solution (5 ml) was added to new YNX+U liquid medium (250 ml) prepared in a baffled Erlenmeyer flask, followed by pre-culture at 30° C. and 100 rpm. After 48 hours of culture, the culture solution was subjected to 5 minutes of centrifugation at 1000×g at room temperature, thereby removing the supernatant.
To prevent the introduction of the substrate into the pre-culture solution, the thus collected microbial pellet was suspended in sterile water and then subjected to centrifugation at 1000×g for 5 minutes, thereby collecting microorganisms. Washing was performed twice. After washing, microorganisms were suspended in sterile water, so that a microbial solution was prepared. A sodium acetate buffer was added to the fermentation medium so as to suppress a pH decrease in the medium associated with fermentation. The microbial solution was added to an YNGXAc+U medium (6.7 g/l Yeast Nitrogen Base without amino acids, 10 g/l D-Xylose, 10 g/l Glucose, 25 mM sodium acetate, 20 mg/l uracil, pH 5.0) so that the initial microbial concentration was OD600=10. One type of amino acid was added to the YNGXAc+U medium to result in a predetermined concentration, and then the medium was used. Amino acid was dissolved in water to a concentration 10 times greater than the final concentration. Then the solution was adjusted to pH 5.0, diluted, and then used. The fermentation test was conducted as follows. Five (5) ml of the culture solution was added to a 15-ml plastic tube with a screw cap, the tube was sealed with the cap, and then the tube was shaken at 30° C. (100 rpm). Sampling from the culture solution was performed over time and thus substrates (xylose and glucose) and the product (ethanol) were analyzed via liquid chromatography. Liquid chromatography was performed using a Shim-pack SPR-Pb column (Shimadzu Corporation) at 80° C. An RID-10A refractive index detector (Shimadzu Corporation) was used. Water was used for a mobile phase and sent at a flow rate of 0.8 ml/min.
A fermentation test was conducted (n=2) using as a control an YNGXAc+U medium to which nothing had been added, an YNGXAc+U medium supplemented with casamino acid (CAA, 20 g/L) (that is, an amino acid mixture obtained via hydrolysis of casein) and YNGXAc+U medium supplemented with 18 types of amino acids considered to be contained in casamino acid (20 g/L) or 2 types of amino acid (glutamine and asparagine) (5 g/L) considered not to be contained in casamino acid. The results of the measurement of the decreased amounts of xylose at hour 8 after the start of the fermentation test are shown in Table 3.

Structure (SMILES)	improvement of xylose consumption rate compared with control [%]
N[C@@H](Cc1ccc(O)cc1)C(=O)O [Tyr, tyrosine]	≥ 20
N[C@@H](Cc1c[nH]cn1)C(=O)O [His, histidine]	≥ 20
C[C@@H](O)[C@H](N)C(=O)O [Thr, threonine]	≥ 20
N[C@@H](CO)C(=O)O [Ser, serine]	≥ 20
NC(=O)C[C@H](N)C(=O)O [Asn, asparagine]	≥ 20
